Data from paper PMC7759385.
No constants are given. Whether binding was seen depends on the method and setting. Binding seen in cells or lysates may run through a third protein. Some binding calls cover weakened binding; strength is not graded here. Sequences can lack the tags named with a protein.

Amino acid sequences for entries named in this document (tags omitted).
UniProt P52294: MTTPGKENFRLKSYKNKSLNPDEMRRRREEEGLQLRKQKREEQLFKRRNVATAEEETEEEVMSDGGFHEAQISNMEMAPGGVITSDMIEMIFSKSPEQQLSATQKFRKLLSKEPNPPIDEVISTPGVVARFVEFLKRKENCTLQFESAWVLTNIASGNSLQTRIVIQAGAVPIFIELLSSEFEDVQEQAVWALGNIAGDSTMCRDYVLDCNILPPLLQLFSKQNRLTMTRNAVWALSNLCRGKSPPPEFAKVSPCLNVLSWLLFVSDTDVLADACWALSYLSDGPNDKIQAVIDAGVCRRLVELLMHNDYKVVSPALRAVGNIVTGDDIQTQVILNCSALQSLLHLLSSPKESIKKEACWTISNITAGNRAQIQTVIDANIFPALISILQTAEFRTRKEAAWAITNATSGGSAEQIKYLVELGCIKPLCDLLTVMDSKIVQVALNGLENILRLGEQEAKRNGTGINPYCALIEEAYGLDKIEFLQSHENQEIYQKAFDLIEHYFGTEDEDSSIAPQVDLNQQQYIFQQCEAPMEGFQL
UniProt Q04206: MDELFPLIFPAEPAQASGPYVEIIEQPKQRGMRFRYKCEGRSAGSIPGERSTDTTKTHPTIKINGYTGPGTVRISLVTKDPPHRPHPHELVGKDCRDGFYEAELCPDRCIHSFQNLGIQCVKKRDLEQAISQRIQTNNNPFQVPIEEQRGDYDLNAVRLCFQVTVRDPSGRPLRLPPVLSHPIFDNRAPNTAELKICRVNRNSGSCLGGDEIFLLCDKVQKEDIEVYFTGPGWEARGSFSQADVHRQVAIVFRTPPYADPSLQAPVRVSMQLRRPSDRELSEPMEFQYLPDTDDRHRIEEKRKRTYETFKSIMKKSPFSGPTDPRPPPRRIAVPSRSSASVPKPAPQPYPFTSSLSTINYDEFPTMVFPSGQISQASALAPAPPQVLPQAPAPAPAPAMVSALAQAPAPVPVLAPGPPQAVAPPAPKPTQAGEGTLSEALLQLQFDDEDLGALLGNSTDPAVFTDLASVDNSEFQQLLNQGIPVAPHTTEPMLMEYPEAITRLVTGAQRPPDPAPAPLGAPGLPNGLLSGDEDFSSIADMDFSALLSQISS

B1: HA-tagged IRF3 (protein, UniProt Q14653 1-427)
chain: MGTPKPRILPWLVSQLDLGQLEGVAWVNKSRTRFRIPWKHGLRQDAQQEDFGIFQAWAEATGAYVPGRDKPDLPTWKRNFRSALNRKEGLRLAEDRSKDPHDPHKIYEFVNSGVGDFSQPDTSPDTNGGGSTSDTQEDILDELLGNMVLAPLPDPGPPSLAVAPEPCPQPLRSPSLDNPTPFPNLGPSENPLKRLLVPGEEWEFEVTAFYRGRQVFQQTISCPEGLRLVGSEVGDRTLPGWPVTLPDPGMSLTDRGVMSYVRHVLSCLGGGLALWRAGQWLWAQRLGHCHTYWAVSEELLPNSGHGPDGEVPKDKEGGVFDLGPFIVDLITFTEGSGRSPRYALWFCVGESWPQDQPWTKRLVMVKVVPTCLRALVEMARVGGASSLENTVDLHISNSHPLSLTSDQYKAYLQDLVEGMDFQGPGES

Target: Flag-tagged karyopherin alpha 1 (KPNA1) (UniProt P52294)
Test: co-IP; Flag-KPNA1 precipitated with anti-FLAG M2 agarose from HEK293T whole cell lysates co-expressing HA-IRF3 or HA-p65, in the presence and absence of un-tagged WT Vpr or Vpr F34I+P35N; HA detected by immunoblot; lysis 24 h after transfection in 0.5% NP-40 in PBS with protease and phosphatase inhibitors

Molecule	binding
HA-tagged NF-κB p65 (from UniProt Q04206 1-551)	binds
B1	binds
